Data as given in the supplement of paper PMC12823440, “Inhibitors supercharge kinase turnover through native proteolytic circuits” (Nature, 2025).
Structures can show the parent of a compound that is named as a salt. This is one part of the list. Hit calls seldom repeat between salt and free forms of one compound.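 Kinases were expressed as nanoluciferase fusions in K562 cells and luminescence was read every 4 h between 2 and 18 h as percent of control, DMSO set to 100% and a positive control to 0%. A time point counts as decreased when the signal drops significantly (2 sigma). The hit call is the authors' own, does not follow from the count of time points alone, and its rule is not shown.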

The chains behind the UniProt entries cited, without tags or fusion partners. Where a name states a change or a piece, a line headed by the entry shows the natural chain unless it says otherwise.
UniProt O75460: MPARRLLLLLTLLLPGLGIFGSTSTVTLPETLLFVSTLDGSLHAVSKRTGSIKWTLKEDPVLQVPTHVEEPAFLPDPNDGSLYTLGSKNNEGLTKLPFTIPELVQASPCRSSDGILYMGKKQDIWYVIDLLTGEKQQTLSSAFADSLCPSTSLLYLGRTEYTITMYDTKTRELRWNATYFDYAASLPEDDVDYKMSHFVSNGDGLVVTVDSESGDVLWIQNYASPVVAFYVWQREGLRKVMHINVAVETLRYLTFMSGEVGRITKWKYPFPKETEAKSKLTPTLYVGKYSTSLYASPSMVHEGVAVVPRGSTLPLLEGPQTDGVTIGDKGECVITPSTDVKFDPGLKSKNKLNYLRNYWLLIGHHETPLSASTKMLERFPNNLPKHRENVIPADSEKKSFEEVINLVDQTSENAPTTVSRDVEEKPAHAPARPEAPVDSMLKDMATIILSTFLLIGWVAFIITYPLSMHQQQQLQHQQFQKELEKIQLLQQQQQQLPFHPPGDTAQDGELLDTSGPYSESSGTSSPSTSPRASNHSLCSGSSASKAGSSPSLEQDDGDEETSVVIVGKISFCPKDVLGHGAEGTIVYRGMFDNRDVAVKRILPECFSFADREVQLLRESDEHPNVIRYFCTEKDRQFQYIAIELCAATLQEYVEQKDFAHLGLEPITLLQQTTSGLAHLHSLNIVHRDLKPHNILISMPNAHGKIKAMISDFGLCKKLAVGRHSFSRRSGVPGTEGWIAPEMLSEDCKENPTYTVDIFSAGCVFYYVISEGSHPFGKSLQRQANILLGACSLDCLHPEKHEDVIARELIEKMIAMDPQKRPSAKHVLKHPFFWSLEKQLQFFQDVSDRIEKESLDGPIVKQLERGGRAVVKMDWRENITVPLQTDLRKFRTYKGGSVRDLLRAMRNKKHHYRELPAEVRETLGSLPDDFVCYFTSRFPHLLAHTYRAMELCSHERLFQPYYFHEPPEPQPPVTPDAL
UniProt P23458: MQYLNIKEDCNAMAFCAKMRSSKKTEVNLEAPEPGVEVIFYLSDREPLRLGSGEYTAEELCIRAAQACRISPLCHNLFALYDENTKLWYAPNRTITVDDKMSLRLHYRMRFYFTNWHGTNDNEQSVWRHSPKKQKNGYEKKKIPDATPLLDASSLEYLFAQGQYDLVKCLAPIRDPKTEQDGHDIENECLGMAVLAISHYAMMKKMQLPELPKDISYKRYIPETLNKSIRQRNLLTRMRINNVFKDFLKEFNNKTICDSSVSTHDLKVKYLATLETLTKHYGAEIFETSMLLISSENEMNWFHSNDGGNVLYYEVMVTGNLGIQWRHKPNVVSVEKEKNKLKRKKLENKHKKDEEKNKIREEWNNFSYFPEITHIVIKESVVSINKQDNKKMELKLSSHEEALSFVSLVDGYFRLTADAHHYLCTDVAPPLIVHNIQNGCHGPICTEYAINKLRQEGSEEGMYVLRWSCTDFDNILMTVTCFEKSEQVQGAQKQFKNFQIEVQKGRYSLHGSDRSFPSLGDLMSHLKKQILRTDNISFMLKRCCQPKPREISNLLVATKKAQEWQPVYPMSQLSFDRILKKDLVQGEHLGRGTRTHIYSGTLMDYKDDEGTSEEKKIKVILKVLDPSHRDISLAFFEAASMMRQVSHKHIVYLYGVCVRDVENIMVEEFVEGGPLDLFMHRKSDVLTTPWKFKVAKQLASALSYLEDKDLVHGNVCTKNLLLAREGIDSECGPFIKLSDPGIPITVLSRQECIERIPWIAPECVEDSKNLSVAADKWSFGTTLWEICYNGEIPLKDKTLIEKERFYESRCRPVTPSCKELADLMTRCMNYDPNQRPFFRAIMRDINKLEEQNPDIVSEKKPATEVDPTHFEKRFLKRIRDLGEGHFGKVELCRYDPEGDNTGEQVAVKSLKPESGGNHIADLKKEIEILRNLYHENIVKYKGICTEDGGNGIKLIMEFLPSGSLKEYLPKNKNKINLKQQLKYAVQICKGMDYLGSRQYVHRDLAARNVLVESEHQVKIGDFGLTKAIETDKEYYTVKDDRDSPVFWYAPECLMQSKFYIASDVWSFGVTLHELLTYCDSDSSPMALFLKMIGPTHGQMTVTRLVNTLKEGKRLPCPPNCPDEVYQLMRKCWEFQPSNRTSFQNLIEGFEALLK
UniProt P06239: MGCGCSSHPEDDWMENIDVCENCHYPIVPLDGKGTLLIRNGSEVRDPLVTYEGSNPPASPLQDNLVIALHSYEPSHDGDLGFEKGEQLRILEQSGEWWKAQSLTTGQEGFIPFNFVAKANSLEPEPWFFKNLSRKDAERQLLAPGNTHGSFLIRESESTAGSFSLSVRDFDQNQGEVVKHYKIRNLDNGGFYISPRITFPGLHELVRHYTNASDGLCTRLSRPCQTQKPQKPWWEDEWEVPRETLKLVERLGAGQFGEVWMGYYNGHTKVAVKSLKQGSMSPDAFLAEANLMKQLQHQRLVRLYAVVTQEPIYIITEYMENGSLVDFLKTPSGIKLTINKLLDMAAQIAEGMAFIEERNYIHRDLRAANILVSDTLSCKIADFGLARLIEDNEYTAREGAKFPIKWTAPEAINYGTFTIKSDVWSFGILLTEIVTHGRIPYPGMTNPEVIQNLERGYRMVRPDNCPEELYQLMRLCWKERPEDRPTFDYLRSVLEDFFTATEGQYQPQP
UniProt P53667: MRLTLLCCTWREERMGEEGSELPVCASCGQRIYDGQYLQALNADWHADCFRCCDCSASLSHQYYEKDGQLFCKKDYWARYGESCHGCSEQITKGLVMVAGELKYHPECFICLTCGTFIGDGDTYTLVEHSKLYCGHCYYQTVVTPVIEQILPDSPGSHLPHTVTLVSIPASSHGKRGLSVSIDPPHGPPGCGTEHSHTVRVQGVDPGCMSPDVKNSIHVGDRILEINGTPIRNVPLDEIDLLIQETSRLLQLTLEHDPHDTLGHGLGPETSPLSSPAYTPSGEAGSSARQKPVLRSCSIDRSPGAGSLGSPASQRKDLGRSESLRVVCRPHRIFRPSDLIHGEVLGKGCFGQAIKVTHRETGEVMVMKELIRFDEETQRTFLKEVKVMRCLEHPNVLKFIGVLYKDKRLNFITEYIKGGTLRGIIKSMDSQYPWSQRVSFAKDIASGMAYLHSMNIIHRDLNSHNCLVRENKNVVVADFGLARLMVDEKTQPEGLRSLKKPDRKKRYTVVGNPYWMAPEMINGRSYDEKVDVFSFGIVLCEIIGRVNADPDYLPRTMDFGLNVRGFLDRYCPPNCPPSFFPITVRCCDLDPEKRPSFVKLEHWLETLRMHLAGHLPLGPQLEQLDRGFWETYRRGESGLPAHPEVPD
UniProt Q8IWU2: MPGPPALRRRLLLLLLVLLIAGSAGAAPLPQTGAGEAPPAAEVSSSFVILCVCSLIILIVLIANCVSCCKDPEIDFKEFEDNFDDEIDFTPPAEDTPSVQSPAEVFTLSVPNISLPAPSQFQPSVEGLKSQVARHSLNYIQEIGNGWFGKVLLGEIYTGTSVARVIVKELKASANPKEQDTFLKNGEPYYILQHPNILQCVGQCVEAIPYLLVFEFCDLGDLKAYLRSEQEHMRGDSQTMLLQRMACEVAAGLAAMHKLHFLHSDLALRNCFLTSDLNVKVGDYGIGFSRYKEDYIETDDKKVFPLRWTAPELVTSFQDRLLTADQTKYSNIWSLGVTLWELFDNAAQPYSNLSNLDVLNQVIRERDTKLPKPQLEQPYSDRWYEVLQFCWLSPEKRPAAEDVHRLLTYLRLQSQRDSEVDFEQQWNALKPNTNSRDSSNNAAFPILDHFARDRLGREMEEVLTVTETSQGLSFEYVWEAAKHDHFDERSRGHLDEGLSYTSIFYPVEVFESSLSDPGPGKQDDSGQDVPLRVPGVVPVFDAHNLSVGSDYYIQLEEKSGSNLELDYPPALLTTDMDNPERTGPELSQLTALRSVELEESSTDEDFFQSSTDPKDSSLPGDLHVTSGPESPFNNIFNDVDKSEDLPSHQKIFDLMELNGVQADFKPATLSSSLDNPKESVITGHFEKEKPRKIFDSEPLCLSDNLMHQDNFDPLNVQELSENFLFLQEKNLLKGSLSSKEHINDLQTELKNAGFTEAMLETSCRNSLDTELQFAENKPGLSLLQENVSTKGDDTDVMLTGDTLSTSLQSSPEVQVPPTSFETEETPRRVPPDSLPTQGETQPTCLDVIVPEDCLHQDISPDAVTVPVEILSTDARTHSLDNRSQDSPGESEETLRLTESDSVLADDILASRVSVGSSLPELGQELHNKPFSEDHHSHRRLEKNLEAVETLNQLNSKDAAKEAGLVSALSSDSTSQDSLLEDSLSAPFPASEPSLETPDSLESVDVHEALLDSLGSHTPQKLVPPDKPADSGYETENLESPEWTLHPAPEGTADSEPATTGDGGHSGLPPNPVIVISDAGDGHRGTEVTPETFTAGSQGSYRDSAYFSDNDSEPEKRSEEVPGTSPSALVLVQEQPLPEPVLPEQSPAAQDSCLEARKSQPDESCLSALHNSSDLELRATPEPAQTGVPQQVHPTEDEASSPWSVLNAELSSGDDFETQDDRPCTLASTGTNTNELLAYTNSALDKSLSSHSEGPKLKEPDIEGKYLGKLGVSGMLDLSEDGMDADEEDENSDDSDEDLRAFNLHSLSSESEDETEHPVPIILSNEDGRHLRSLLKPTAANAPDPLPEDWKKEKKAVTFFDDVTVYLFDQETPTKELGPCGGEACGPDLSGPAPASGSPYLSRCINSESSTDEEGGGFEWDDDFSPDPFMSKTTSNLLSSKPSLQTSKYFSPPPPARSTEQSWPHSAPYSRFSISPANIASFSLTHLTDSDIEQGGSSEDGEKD
UniProt P07948: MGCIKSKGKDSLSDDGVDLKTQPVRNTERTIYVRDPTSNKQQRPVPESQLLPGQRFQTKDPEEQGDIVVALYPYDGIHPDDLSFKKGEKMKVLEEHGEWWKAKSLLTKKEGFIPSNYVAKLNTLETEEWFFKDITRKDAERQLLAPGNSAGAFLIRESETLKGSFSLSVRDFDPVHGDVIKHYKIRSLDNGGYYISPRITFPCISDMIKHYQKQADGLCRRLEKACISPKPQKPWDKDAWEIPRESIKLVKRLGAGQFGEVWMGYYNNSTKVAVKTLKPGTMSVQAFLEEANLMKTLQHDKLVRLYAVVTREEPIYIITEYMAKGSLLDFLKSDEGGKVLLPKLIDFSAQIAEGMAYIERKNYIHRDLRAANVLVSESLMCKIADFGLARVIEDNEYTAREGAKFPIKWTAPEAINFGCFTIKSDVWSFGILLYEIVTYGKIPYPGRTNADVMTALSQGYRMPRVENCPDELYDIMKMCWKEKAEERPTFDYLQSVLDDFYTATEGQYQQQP
UniProt P36888, whole entry: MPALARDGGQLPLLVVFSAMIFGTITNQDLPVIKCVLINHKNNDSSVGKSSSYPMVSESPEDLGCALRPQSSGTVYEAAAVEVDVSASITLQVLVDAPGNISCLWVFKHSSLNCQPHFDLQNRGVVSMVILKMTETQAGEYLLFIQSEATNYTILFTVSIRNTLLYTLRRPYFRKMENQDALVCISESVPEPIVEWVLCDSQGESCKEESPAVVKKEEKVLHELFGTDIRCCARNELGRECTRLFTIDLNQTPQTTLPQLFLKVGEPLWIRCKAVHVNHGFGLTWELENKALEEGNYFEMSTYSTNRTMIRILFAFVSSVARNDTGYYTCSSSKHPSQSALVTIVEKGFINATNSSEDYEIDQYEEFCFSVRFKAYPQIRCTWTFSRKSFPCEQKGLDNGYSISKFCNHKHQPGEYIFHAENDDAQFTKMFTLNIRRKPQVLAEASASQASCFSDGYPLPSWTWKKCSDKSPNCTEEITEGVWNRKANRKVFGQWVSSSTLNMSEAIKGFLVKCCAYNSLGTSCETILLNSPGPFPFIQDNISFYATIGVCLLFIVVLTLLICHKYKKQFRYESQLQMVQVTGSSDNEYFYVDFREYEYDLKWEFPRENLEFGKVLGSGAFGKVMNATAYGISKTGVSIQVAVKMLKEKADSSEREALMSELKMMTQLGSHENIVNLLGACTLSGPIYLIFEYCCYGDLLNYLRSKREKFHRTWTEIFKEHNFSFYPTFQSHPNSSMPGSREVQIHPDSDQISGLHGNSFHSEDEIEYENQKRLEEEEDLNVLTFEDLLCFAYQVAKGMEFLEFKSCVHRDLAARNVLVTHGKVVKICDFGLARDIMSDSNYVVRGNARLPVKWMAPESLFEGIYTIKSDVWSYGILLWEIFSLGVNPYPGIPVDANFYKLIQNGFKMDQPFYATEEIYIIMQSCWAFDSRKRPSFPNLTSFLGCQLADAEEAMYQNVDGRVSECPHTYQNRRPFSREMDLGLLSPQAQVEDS

Legend:
Assay in all cases: kinase-Nluc reporter destabilization hit call (1 = scored as downregulated) (binary); higher = compound decreases kinase abundance
Conditions in all cases: K562; 2-18 h
ERN1 = ERN1 (UniProt O75460)
FGFR2 = FGFR2 (UniProt P21802)
FGR = FGR (UniProt P09769)
FYN = FYN (UniProt P06241)
GSK3A = GSK3A (UniProt P49840)
HER2 = HER2 (UniProt P04626)
INSRR = INSRR (UniProt P14616)
IRAK3 = IRAK3 (UniProt Q9Y616)
JAK1 = JAK1 (UniProt P23458)
LCK = LCK (UniProt P06239)
LIMK1 = LIMK1 (UniProt P53667)
LIMK2 = LIMK2 (UniProt P53671)
LMTK2 = LMTK2 (UniProt Q8IWU2)
LYN = LYN (UniProt P07948)
MAP2K1 = MAP2K1 (UniProt Q02750)
MAP2K2 = MAP2K2 (UniProt P36507)
MAP4K2 = MAP4K2 (UniProt Q12851)
FGFR1 = FGFR1 (UniProt P11362)
FGFR3 = FGFR3 (UniProt P22607)
FLT3 = FLT3 (UniProt P36888)

Row | SMILES | kinase-Nluc reporter destabilization hit call (ERN1) | kinase-Nluc reporter destabilization hit call (FGFR2) | kinase-Nluc reporter destabilization hit call (FGR) | kinase-Nluc reporter destabilization hit call (FYN) | kinase-Nluc reporter destabilization hit call (GSK3A) | kinase-Nluc reporter destabilization hit call (HER2) | kinase-Nluc reporter destabilization hit call (INSRR) | kinase-Nluc reporter destabilization hit call (IRAK3) | kinase-Nluc reporter destabilization hit call (JAK1) | kinase-Nluc reporter destabilization hit call (LCK) | kinase-Nluc reporter destabilization hit call (LIMK1) | kinase-Nluc reporter destabilization hit call (LIMK2) | kinase-Nluc reporter destabilization hit call (LMTK2) | kinase-Nluc reporter destabilization hit call (LYN) | kinase-Nluc reporter destabilization hit call (MAP2K1) | kinase-Nluc reporter destabilization hit call (MAP2K2) | kinase-Nluc reporter destabilization hit call (MAP4K2) | kinase-Nluc reporter destabilization hit call (FGFR1) | kinase-Nluc reporter destabilization hit call (FGFR3) | kinase-Nluc reporter destabilization hit call (FLT3)
1 | COc1cc(CCc2cc(-c3nc4ccc(N5CCN(C)CC5)cc4[nH]3)n[nH]2)cc(OC)c1 (10 µM) | inactive: 0 | inactive: 0 | inactive: 0 | inactive: 0 | inactive: 0 | inactive: 0 | inactive: 0 | inactive: 0 | inactive: 0 | inactive: 0 | inactive: 0 | inactive: 0 | inactive: 0 | inactive: 0 | inactive: 0 | inactive: 0 | inactive: 0 | – | – | –
2 | CC(C)(C)c1nc2c3cc[nH]c(=O)c3c3cc(F)ccc3c2[nH]1 [Pyridone 6] (10 µM) | inactive: 0 | inactive: 0 | inactive: 0 | inactive: 0 | inactive: 0 | inactive: 0 | inactive: 0 | inactive: 0 | inactive: 0 | – | inactive: 0 | inactive: 0 | inactive: 0 | inactive: 0 | inactive: 0 | inactive: 0 | inactive: 0 | inactive: 0 | inactive: 0 | inactive: 0
3 | O=c1oc2c(C3OCCCO3)c(O)ccc2c2c1CNCC2 (10 µM) | – | inactive: 0 | inactive: 0 | inactive: 0 | inactive: 0 | inactive: 0 | inactive: 0 | inactive: 0 | inactive: 0 | inactive: 0 | inactive: 0 | inactive: 0 | inactive: 0 | inactive: 0 | inactive: 0 | inactive: 0 | inactive: 0 | inactive: 0 | inactive: 0 | inactive: 0
4 | CC(C)=CC/C=C(\C)[C@H]1CC[C@]2(C)[C@@H]1[C@H](O)C[C@@H]1[C@@]3(C)CC[C@H](O[C@@H]4O[C@H](CO)[C@@H](O)[C@H](O)[C@H]4O[C@@H]4O[C@H](CO)[C@@H](O)[C@H](O)[C@H]4O)C(C)(C)[C@@H]3CC[C@]12C [Ginsenoside Rg5] (10 µM) | – | inactive: 0 | inactive: 0 | inactive: 0 | inactive: 0 | inactive: 0 | inactive: 0 | inactive: 0 | inactive: 0 | inactive: 0 | inactive: 0 | inactive: 0 | inactive: 0 | inactive: 0 | inactive: 0 | inactive: 0 | inactive: 0 | inactive: 0 | inactive: 0 | inactive: 0
5 | Cn1c(=O)c(Oc2ccc(F)cc2F)cc2cnc(NC3CCOCC3)nc21 [R1487 (Hydrochloride)] (10 µM) | inactive: 0 | inactive: 0 | inactive: 0 | inactive: 0 | inactive: 0 | inactive: 0 | inactive: 0 | inactive: 0 | inactive: 0 | – | inactive: 0 | inactive: 0 | inactive: 0 | inactive: 0 | inactive: 0 | inactive: 0 | inactive: 0 | inactive: 0 | inactive: 0 | inactive: 0
6 | COc1nccc(-c2c(-c3ccc(F)cc3)ncn2C2CCC(O)CC2)n1 (stereo unspecified) (10 µM) | inactive: 0 | inactive: 0 | inactive: 0 | inactive: 0 | inactive: 0 | inactive: 0 | inactive: 0 | inactive: 0 | inactive: 0 | – | inactive: 0 | inactive: 0 | inactive: 0 | inactive: 0 | inactive: 0 | inactive: 0 | inactive: 0 | inactive: 0 | inactive: 0 | inactive: 0
7 | COc1cc2c(Nc3ccc(NC(=O)c4ccccc4)cc3)ncnc2cc1OCCCN1CCOCC1 (10 µM) | inactive: 0 | inactive: 0 | inactive: 0 | inactive: 0 | inactive: 0 | inactive: 0 | inactive: 0 | inactive: 0 | inactive: 0 | – | inactive: 0 | inactive: 0 | inactive: 0 | inactive: 0 | inactive: 0 | inactive: 0 | inactive: 0 | inactive: 0 | inactive: 0 | inactive: 0
8 | Cc1ccc2c(Nc3ccc(Cl)cc3)nccc2c1Nc1ncccc1-c1ncnc2nc[nH]c12 [Raf inhibitor 1] (2.5 µM) | inactive: 0 | inactive: 0 | inactive: 0 | inactive: 0 | inactive: 0 | inactive: 0 | inactive: 0 | inactive: 0 | inactive: 0 | – | inactive: 0 | inactive: 0 | inactive: 0 | inactive: 0 | inactive: 0 | inactive: 0 | inactive: 0 | inactive: 0 | inactive: 0 | inactive: 0
9 | C=CC(=O)N[C@H]1COC[C@H]1Nc1ncc2cc(-c3c(Cl)c(OC)cc(OC)c3Cl)c(=O)n(C)c2n1 (10 µM) | inactive: 0 | – | inactive: 0 | inactive: 0 | inactive: 0 | inactive: 0 | inactive: 0 | inactive: 0 | inactive: 0 | inactive: 0 | inactive: 0 | inactive: 0 | inactive: 0 | inactive: 0 | inactive: 0 | inactive: 0 | inactive: 0 | inactive: 0 | inactive: 0 | inactive: 0
10 | CN(C)C[C@@H]1CCn2cc(c3ccccc32)C2=C(C(=O)NC2=O)c2cn(c3ccccc23)CCO1 [Ruboxistaurin (hydrochloride)] (10 µM) | inactive: 0 | inactive: 0 | inactive: 0 | inactive: 0 | inactive: 0 | inactive: 0 | inactive: 0 | inactive: 0 | inactive: 0 | – | inactive: 0 | inactive: 0 | inactive: 0 | inactive: 0 | inactive: 0 | inactive: 0 | inactive: 0 | inactive: 0 | inactive: 0 | inactive: 0
11 | COc1ccc2c(C(=O)Nc3ccc(NC(=O)c4nn(C5CCN(C(=O)CC(C)(C)C#N)CC5)c5ccc(F)cc45)cc3Cl)cnn2c1 [Src Inhibitor 3] (2.5 µM) | inactive: 0 | inactive: 0 | inactive: 0 | inactive: 0 | inactive: 0 | inactive: 0 | inactive: 0 | inactive: 0 | inactive: 0 | – | inactive: 0 | inactive: 0 | inactive: 0 | active: 1 | inactive: 0 | inactive: 0 | inactive: 0 | inactive: 0 | inactive: 0 | inactive: 0
12 | CNC(=O)c1ccccc1Nc1nc(Nc2ccc(N3CCOCC3)cc2OC)ncc1Cl (2.5 µM) | inactive: 0 | inactive: 0 | inactive: 0 | inactive: 0 | inactive: 0 | inactive: 0 | inactive: 0 | inactive: 0 | inactive: 0 | – | inactive: 0 | inactive: 0 | inactive: 0 | inactive: 0 | inactive: 0 | inactive: 0 | inactive: 0 | inactive: 0 | inactive: 0 | inactive: 0
13 | CC(C)(C)S(=O)(=O)c1cc2c(Nc3ccc4scnc4c3)ncnc2cc1OCCO (2.5 µM) | – | inactive: 0 | inactive: 0 | inactive: 0 | inactive: 0 | inactive: 0 | inactive: 0 | inactive: 0 | inactive: 0 | inactive: 0 | inactive: 0 | inactive: 0 | inactive: 0 | inactive: 0 | inactive: 0 | inactive: 0 | inactive: 0 | inactive: 0 | inactive: 0 | inactive: 0
14 | CCCCNc1ncc(-c2ccc(CN3CCOCC3)cn2)c(NC2CCC(O)CC2)n1 (stereo unspecified) (10 µM) | inactive: 0 | inactive: 0 | inactive: 0 | inactive: 0 | inactive: 0 | inactive: 0 | inactive: 0 | inactive: 0 | inactive: 0 | inactive: 0 | inactive: 0 | inactive: 0 | inactive: 0 | inactive: 0 | inactive: 0 | inactive: 0 | inactive: 0 | inactive: 0 | inactive: 0 | –
15 | Nc1ncnc2c1c(-c1ccc(Oc3ccccc3)cc1)cn2C1CCCC1 (2.5 µM) | inactive: 0 | inactive: 0 | inactive: 0 | inactive: 0 | inactive: 0 | inactive: 0 | inactive: 0 | inactive: 0 | inactive: 0 | – | inactive: 0 | inactive: 0 | inactive: 0 | inactive: 0 | inactive: 0 | inactive: 0 | inactive: 0 | inactive: 0 | inactive: 0 | inactive: 0
16 | Cc1c[nH]c(/C=C2\C(=O)Nc3ccccc32)c1CCC(=O)O (10 µM) | inactive: 0 | inactive: 0 | inactive: 0 | inactive: 0 | inactive: 0 | inactive: 0 | inactive: 0 | inactive: 0 | inactive: 0 | inactive: 0 | inactive: 0 | inactive: 0 | inactive: 0 | inactive: 0 | inactive: 0 | inactive: 0 | inactive: 0 | – | inactive: 0 | inactive: 0
17 | COc1cc(N2CCC(N)CC2)ccc1Nc1ncc(Cl)c(-c2c[nH]c3ccccc23)n1 (2.5 µM) | inactive: 0 | – | inactive: 0 | inactive: 0 | inactive: 0 | inactive: 0 | inactive: 0 | inactive: 0 | inactive: 0 | inactive: 0 | inactive: 0 | inactive: 0 | inactive: 0 | inactive: 0 | inactive: 0 | inactive: 0 | inactive: 0 | inactive: 0 | inactive: 0 | inactive: 0

3 structures already listed, arranged by number of heavy atoms, rising.
Row | SMILES | kinase-Nluc reporter destabilization hit call (ERN1) | kinase-Nluc reporter destabilization hit call (FGFR2) | kinase-Nluc reporter destabilization hit call (FGR) | kinase-Nluc reporter destabilization hit call (FYN) | kinase-Nluc reporter destabilization hit call (GSK3A) | kinase-Nluc reporter destabilization hit call (HER2) | kinase-Nluc reporter destabilization hit call (INSRR) | kinase-Nluc reporter destabilization hit call (IRAK3) | kinase-Nluc reporter destabilization hit call (JAK1) | kinase-Nluc reporter destabilization hit call (LCK) | kinase-Nluc reporter destabilization hit call (LIMK1) | kinase-Nluc reporter destabilization hit call (LIMK2) | kinase-Nluc reporter destabilization hit call (LMTK2) | kinase-Nluc reporter destabilization hit call (LYN) | kinase-Nluc reporter destabilization hit call (MAP2K1) | kinase-Nluc reporter destabilization hit call (MAP2K2) | kinase-Nluc reporter destabilization hit call (MAP4K2) | kinase-Nluc reporter destabilization hit call (FGFR1) | kinase-Nluc reporter destabilization hit call (FGFR3) | kinase-Nluc reporter destabilization hit call (FLT3)
15 | Nc1ncnc2c1c(-c1ccc(Oc3ccccc3)cc1)cn2C1CCCC1 (2.5 µM) | inactive: 0 | inactive: 0 | inactive: 0 | inactive: 0 | inactive: 0 | inactive: 0 | inactive: 0 | inactive: 0 | inactive: 0 | – | inactive: 0 | inactive: 0 | inactive: 0 | inactive: 0 | inactive: 0 | inactive: 0 | inactive: 0 | inactive: 0 | inactive: 0 | inactive: 0
13 | CC(C)(C)S(=O)(=O)c1cc2c(Nc3ccc4scnc4c3)ncnc2cc1OCCO (2.5 µM) | – | inactive: 0 | inactive: 0 | inactive: 0 | inactive: 0 | inactive: 0 | inactive: 0 | inactive: 0 | inactive: 0 | inactive: 0 | inactive: 0 | inactive: 0 | inactive: 0 | inactive: 0 | inactive: 0 | inactive: 0 | inactive: 0 | inactive: 0 | inactive: 0 | inactive: 0
14 | CCCCNc1ncc(-c2ccc(CN3CCOCC3)cn2)c(NC2CCC(O)CC2)n1 (stereo unspecified) (10 µM) | inactive: 0 | inactive: 0 | inactive: 0 | inactive: 0 | inactive: 0 | inactive: 0 | inactive: 0 | inactive: 0 | inactive: 0 | inactive: 0 | inactive: 0 | inactive: 0 | inactive: 0 | inactive: 0 | inactive: 0 | inactive: 0 | inactive: 0 | inactive: 0 | inactive: 0 | –
